# Experimental data from PubChem BioAssay AID1347075 (National Center for Advancing Translational Sciences (NCATS), 2019).
# Screen size: about 400,000 compounds; about 5,500 (1.4%) were called active. Inconclusive results, whose numbers are uncertain, are shown with a selection of clear calls. The call rests on the fitted dose curve; in most records, active means well fitted cell-killing curve with a large enough effect; inconclusive means small, poorly fitted or top-dose-only effect, or effect the other way; inactive means flat fitted curve, though single readings scatter. Potencies beside an inconclusive call are fits to weak or partial responses and may not hold up.
# Test: qHTS assay for MDR1-selective chemotherapeutics: Primary screen using the parental adenocarcinoma cell KB-3-1; further: nearly all actives have a fitted effect of over 60% in size
# Conditions: KB-3-1 viability, CellTiter-Glo ATP luminescence, 72 h; activity change, negative = cytotoxic: at 46.1 µM (top of the series)
# Outline: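 Luminescent ATP read-out (CellTiter-Glo) measures survival of drug-naive KB-3-1 cells after 72 h compound exposure at 37 °C. Titration series was screened from lowest to highest concentration, with DMSO vehicle plates as background controls.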
# On the % scale 0 is the no-effect control and ±100 the full control effect; potency means the concentration at half of the fitted maximal effect.
Compound,Potency,"activity change, negative = cytotoxic"
O=C(O)CCCCCCCCc1cn(CC2CCCCC2)nn1,"inconclusive: 16.4 µM [rising, partial curve, poor fit]",–
Cc1ccccc1OCC(=O)Nc1nc2ccccc2[nH]1,inactive,–
C=C(C)COc1ccc(-c2ncnc(C(F)(F)F)c2-c2ccc(OC)cc2)c(O)c1,"inconclusive: 29.1 µM [cytotoxic, single point]",–
CN(CC(=O)Nc1cccc(F)c1)C(=O)c1cc(S(=O)(=O)N2CCN(c3ccccc3)CC2)ccc1Cl,"inconclusive: 20.6 µM [cytotoxic, partial curve, poor fit]",–
Cn1cc(S(=O)(=O)N2CCCCC2)cc1C(=O)N1CCN(c2ccc(F)cc2)CC1,inactive,–
CCN(C[C@H]1N[C@@](Cc2ccccc2)(C(=O)OC)[C@H]2C(=O)N(Cc3ccccc3)C(=O)[C@@H]12)S(=O)(=O)c1ccc(F)cc1,inactive,–
Cc1cc(C(=O)NCCN2C(=O)S/C(=C\c3cccs3)C2=O)ccc1[N+](=O)[O-],–,inconclusive: 0%
Cc1ccc(C)c(N2CCN(C(=O)CCCCCn3c(=S)[nH]c4ccc(N5CCOCC5)cc4c3=O)CC2)c1,"inconclusive: 13 µM [cytotoxic, partial curve, poor fit]",–
CC(C)(C)NC(=O)CSc1nc(-c2ccc(F)cc2)cs1,inactive,–
Cc1sc2nc(CN(Cc3cccs3)C(=O)NC3CCCCC3)[nH]c(=O)c2c1C,"inconclusive: 29.1 µM [cytotoxic, partial curve, poor fit]",–
CCc1ccc(NC(=O)CSc2nccn2C2CCCC2)cc1,inactive,–
Cc1c(C(N)=O)nnn1-c1ccc(Br)cc1,inactive,–
COc1ccc(OC)c(S(=O)(=O)Nc2c(NC3CCCCC3)c3ccccc3oc2=O)c1,"inconclusive: 23.1 µM [cytotoxic, single point]",–
CC(C)(C)c1nc(NC(=O)Nc2ccccc2)sc1Br,"inconclusive: 29.1 µM [cytotoxic, single point]",–
COc1cc(CNCc2c(C(=O)O)c(C)n(Cc3cccc(Cl)c3)c2C)cc(OC)c1OC,–,inconclusive: 0.506%
O=C(c1ccc(Oc2ccc([N+](=O)[O-])cc2)cc1)N1CCCCCC1,"inconclusive: 18.4 µM [cytotoxic, single point]",–
O=C(Nc1nc(-c2ccc(S(=O)(=O)N3CCOCC3)cc2)cs1)c1ccccc1,inactive,–
O=C(NC(=S)N1CCN(c2nc(-c3ccccc3)cs2)CC1)c1cncc(Br)c1,"inconclusive: 29.1 µM [cytotoxic, single point]",–
O=C(CN1CC(c2ccccc2)CC1=O)N/N=C/c1cc(Br)ccc1O (stereo not given),"inconclusive: 8.2 µM [cytotoxic, partial curve]",–
CCC(C(=O)N1CCN(c2cc(Cl)ccc2C)CC1)n1nc(C)n2c(cc3occc32)c1=O (stereo not given),active: 10.3 µM,–
O=C1C(Cc2ccccc2)C(c2ccccc2)N1c1ccccc1 (stereo not given),active: 20.6 µM,–
COc1ccc(-c2csc(NC(C)c3nc4cc(Cl)c(N5CCCCC5)cc4n3CCOCCO)n2)cc1 (stereo not given),"inconclusive: 16.4 µM [cytotoxic, single point]",–
C[C@@H](CSc1ccc(Br)cc1)CN1CC[C@H](NC(=O)OCc2ccccc2)CCC1=O,"inconclusive: 18.4 µM [cytotoxic, single point]",–

# Already shown: entries from further up.
Compound,Potency,"activity change, negative = cytotoxic"
Cc1ccc(C)c(N2CCN(C(=O)CCCCCn3c(=S)[nH]c4ccc(N5CCOCC5)cc4c3=O)CC2)c1,"inconclusive: 13 µM [cytotoxic, partial curve, poor fit]",–
CC(C)(C)NC(=O)CSc1nc(-c2ccc(F)cc2)cs1,inactive,–
Cc1sc2nc(CN(Cc3cccs3)C(=O)NC3CCCCC3)[nH]c(=O)c2c1C,"inconclusive: 29.1 µM [cytotoxic, partial curve, poor fit]",–
CCc1ccc(NC(=O)CSc2nccn2C2CCCC2)cc1,inactive,–
Cc1c(C(N)=O)nnn1-c1ccc(Br)cc1,inactive,–
COc1ccc(OC)c(S(=O)(=O)Nc2c(NC3CCCCC3)c3ccccc3oc2=O)c1,"inconclusive: 23.1 µM [cytotoxic, single point]",–
CC(C)(C)c1nc(NC(=O)Nc2ccccc2)sc1Br,"inconclusive: 29.1 µM [cytotoxic, single point]",–
COc1cc(CNCc2c(C(=O)O)c(C)n(Cc3cccc(Cl)c3)c2C)cc(OC)c1OC,–,inconclusive: 0.506%
O=C(c1ccc(Oc2ccc([N+](=O)[O-])cc2)cc1)N1CCCCCC1,"inconclusive: 18.4 µM [cytotoxic, single point]",–
O=C(Nc1nc(-c2ccc(S(=O)(=O)N3CCOCC3)cc2)cs1)c1ccccc1,inactive,–
O=C(NC(=S)N1CCN(c2nc(-c3ccccc3)cs2)CC1)c1cncc(Br)c1,"inconclusive: 29.1 µM [cytotoxic, single point]",–

# (continued)

Compound,Potency,"activity change, negative = cytotoxic"
Fc1ccccc1-n1c(-c2ccc3ccccc3n2)n[nH]c1=S,inactive,–
CC[C@@H](C)[C@H](N)C(=O)NC[C@H]1O[C@@H](n2cnc3c(N)ncnc32)[C@H](O)[C@@H]1O,inactive,–
COc1cc(OC)cc(C(=O)Nc2ccccc2C(=O)NC2CC2)c1,"inconclusive: 16.4 µM [cytotoxic, single point]",–
COc1cccc(-c2cnc3c(NC=O)cc(-c4ccoc4)cn23)c1,inactive,–
Cc1cc(S(=O)(=O)N2CCN(CC(=O)N(C)Cc3ccccc3)CC2)ccc1Br,inactive,–
O=C(NC1CCCCC1)C(c1ccncc1)N(Cc1ccc2c(c1)OCO2)C(=O)C(F)(F)F (stereo not given),inactive,–
CCOc1cc(/C=N/NC(=O)c2cc(-c3cccc(OC)c3)nc3ccccc23)ccc1O,"inconclusive: 16.4 µM [cytotoxic, single point]",–
CC1CCN(CCCNC(=O)c2cc3c(s2)-c2ccccc2OC3)CC1,active: 23.1 µM,–
CC(C)N(Cc1nc(-c2ccccc2)no1)C(=O)COc1ccccc1,inactive,–
CC1CN(CC(O)c2ccc(Br)cc2)CCO1 (stereo not given),inactive,–
NC(=O)c1c(NC(=O)c2ccc([N+](=O)[O-])o2)sc2c1CCCC2,active: 16.4 µM,–
O=C(NCCc1ccc(Cl)cc1)c1ccc(CSCc2ccccc2Cl)o1,inactive,–
CC(=O)c1cccc(NC(=O)c2nc(-c3ccc(C)cc3)n3c2CCCCC3)c1,inactive,–
O=C(Nc1ccncc1)c1ccc(Cl)c(S(=O)(=O)N2CCCCC2)c1,"inconclusive: 11.6 µM [cytotoxic, single point]",–
Cc1ccc(S(=O)(=O)Nc2cccc(-c3ccc(N4CCCCC4)nn3)c2)s1,inactive,–
CCNc1nc(NC(C)C)nc(N(C#N)CCOc2ccccc2)n1,"inconclusive: 29.1 µM [cytotoxic, single point]",–
CCN(CC)C(=O)C1=C(C)N(Cc2ccc(C(C)(C)C)cc2)C(=O)C(CC(=O)NCC2CCCCC2)C1 (stereo not given),"inconclusive: 0.0065 µM [cytotoxic, full curve, poor fit]",–
CC(C)C[C@H]1CNC(=S)N1CC1CCN(CCC23CC4CC(CC(C4)C2)C3)CC1,"inconclusive: 32.6 µM [cytotoxic, single point]",–
Cc1onc(-c2ccccc2)c1C(=O)N/N=C(\N)COc1ccc(Cl)cc1,"inconclusive: 29.1 µM [cytotoxic, single point]",–
CCN(CC)c1ccc(/C=N/Nc2nc(C)cc(C)n2)c(O)c1,"inconclusive: 11.6 µM [cytotoxic, partial curve]",–
Cc1oc(-c2cccc(Cl)c2)nc1CN1CCC(C(=O)NCCCN2CCN(c3cccc(Cl)c3)CC2)CC1,"inconclusive: 20.6 µM [cytotoxic, single point]",–
O=C(Nc1cnn(Cc2ccc(F)cc2)c1)c1noc2c1CCCC2,"inconclusive: 1.3 µM [cytotoxic, full curve, poor fit]",–
